Test results: the supplement of paper PMC10849652
This is one part of the list.

Chains of the proteins cited; added tags and fusions are not shown. Lines headed by an entry give the natural chain unless they say otherwise; changes in a name come on top.
UniProt Q86XS8: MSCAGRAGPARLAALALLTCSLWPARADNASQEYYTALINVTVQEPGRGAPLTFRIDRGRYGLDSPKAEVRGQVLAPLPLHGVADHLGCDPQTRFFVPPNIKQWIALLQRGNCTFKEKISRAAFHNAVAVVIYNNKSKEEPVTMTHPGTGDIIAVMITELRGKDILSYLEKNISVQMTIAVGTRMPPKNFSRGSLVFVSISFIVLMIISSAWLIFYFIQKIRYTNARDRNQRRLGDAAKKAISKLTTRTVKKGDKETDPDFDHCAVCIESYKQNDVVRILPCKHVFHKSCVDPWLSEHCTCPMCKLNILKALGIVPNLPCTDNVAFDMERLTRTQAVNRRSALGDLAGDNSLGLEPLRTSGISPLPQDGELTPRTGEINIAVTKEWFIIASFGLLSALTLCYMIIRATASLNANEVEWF
UniProt Q92546: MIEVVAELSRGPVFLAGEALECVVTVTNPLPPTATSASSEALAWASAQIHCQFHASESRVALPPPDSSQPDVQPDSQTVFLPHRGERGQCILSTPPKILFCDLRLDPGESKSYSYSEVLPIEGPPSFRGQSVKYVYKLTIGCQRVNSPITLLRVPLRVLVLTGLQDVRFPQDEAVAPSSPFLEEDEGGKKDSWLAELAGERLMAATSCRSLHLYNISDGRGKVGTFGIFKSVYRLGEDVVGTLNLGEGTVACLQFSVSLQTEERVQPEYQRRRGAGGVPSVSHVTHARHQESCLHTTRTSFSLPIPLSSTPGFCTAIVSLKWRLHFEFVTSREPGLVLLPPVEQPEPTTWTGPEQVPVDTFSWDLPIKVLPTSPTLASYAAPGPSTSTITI
UniProt Q96E14: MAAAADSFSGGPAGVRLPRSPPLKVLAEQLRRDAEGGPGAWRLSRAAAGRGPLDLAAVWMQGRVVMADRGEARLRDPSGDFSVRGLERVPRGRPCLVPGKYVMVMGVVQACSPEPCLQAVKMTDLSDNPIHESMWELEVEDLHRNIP
UniProt Q6R327, whole entry, looked up: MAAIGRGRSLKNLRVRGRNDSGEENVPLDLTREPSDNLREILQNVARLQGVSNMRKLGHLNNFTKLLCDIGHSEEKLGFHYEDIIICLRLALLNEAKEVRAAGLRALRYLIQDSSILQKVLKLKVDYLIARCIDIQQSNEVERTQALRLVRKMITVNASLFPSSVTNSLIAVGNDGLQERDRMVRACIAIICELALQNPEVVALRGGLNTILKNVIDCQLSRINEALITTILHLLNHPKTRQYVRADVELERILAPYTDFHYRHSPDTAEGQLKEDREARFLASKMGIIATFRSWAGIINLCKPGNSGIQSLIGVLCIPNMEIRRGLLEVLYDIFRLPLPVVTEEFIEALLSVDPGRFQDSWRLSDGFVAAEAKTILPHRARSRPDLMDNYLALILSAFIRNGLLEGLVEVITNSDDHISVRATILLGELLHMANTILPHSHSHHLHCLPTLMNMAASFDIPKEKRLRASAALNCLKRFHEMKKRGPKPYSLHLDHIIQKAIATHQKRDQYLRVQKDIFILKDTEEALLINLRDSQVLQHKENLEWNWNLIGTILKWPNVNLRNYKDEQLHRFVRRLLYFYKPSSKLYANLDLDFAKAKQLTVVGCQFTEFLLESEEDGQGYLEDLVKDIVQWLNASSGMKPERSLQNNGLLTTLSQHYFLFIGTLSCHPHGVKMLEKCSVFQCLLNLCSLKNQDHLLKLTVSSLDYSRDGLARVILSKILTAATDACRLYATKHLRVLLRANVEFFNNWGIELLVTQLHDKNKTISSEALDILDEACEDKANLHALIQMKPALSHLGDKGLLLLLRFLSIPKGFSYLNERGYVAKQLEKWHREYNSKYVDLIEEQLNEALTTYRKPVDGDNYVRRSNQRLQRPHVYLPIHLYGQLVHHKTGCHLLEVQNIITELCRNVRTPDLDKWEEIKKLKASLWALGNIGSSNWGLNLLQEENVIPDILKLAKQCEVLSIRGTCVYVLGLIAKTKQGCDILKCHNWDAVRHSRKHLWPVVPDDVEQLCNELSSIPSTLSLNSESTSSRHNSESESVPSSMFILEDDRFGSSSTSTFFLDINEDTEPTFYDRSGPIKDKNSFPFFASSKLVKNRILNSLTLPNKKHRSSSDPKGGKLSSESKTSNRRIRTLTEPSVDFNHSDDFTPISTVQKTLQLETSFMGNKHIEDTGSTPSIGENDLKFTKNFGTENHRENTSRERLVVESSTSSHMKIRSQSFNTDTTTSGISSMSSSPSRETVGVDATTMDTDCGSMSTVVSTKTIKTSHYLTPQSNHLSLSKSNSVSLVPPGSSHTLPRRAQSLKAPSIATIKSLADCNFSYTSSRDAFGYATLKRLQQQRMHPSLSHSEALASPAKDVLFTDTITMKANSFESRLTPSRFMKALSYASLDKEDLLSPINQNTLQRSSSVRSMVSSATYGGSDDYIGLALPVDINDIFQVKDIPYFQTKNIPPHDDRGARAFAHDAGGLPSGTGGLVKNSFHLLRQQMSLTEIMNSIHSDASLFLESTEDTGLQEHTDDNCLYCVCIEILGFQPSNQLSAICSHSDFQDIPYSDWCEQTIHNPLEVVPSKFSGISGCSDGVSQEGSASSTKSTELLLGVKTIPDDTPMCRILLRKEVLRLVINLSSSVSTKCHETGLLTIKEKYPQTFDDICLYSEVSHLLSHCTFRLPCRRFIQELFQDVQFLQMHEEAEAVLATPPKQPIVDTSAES
UniProt Q96GF1: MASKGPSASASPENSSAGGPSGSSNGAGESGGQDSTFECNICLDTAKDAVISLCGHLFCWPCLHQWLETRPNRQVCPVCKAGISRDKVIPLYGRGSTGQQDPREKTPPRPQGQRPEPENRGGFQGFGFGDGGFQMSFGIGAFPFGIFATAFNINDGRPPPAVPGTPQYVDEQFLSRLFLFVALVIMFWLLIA
UniProt Q96LZ7: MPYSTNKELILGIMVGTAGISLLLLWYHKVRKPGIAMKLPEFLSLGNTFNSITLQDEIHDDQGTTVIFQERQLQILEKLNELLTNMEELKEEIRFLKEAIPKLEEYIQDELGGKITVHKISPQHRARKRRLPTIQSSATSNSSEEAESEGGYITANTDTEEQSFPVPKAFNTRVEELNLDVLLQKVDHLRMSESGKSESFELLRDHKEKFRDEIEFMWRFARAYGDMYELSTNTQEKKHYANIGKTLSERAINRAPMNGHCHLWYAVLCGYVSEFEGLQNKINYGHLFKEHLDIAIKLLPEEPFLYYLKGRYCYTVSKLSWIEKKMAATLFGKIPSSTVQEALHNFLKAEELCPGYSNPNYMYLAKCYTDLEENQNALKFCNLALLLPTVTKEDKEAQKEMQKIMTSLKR
UniProt Q9NVW2: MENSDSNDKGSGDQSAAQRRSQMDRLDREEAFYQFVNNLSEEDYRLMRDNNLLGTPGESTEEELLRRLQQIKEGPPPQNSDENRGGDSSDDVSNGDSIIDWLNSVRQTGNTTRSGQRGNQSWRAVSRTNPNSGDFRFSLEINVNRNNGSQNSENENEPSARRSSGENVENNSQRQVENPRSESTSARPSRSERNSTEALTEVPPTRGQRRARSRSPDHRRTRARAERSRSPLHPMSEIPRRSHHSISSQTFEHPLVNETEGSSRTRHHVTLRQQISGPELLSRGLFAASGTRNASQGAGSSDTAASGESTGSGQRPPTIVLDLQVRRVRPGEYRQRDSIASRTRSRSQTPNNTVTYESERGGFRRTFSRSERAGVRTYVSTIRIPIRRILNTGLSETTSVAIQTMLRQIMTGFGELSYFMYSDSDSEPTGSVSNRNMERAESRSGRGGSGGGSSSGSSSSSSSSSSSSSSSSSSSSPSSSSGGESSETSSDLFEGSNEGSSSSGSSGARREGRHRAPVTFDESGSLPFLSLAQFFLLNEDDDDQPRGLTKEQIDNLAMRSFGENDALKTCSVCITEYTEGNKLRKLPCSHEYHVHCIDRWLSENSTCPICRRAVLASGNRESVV
UniProt Q8IYW5, whole entry, looked up: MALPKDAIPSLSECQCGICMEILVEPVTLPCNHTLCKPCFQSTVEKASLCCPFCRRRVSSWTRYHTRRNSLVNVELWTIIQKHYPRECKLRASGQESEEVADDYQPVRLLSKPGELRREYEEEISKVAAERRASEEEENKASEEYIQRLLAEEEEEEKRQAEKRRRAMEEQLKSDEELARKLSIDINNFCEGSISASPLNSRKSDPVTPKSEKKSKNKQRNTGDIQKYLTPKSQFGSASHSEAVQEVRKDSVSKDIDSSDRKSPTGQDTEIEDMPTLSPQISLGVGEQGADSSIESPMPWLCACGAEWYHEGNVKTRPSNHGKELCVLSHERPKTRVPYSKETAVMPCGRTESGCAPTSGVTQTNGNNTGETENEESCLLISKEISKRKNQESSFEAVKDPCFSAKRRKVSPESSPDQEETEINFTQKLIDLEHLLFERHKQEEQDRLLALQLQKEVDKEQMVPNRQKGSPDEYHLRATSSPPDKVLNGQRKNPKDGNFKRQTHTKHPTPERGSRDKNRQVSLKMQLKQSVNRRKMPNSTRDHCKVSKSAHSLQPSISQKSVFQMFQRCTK
UniProt Q6NUQ1: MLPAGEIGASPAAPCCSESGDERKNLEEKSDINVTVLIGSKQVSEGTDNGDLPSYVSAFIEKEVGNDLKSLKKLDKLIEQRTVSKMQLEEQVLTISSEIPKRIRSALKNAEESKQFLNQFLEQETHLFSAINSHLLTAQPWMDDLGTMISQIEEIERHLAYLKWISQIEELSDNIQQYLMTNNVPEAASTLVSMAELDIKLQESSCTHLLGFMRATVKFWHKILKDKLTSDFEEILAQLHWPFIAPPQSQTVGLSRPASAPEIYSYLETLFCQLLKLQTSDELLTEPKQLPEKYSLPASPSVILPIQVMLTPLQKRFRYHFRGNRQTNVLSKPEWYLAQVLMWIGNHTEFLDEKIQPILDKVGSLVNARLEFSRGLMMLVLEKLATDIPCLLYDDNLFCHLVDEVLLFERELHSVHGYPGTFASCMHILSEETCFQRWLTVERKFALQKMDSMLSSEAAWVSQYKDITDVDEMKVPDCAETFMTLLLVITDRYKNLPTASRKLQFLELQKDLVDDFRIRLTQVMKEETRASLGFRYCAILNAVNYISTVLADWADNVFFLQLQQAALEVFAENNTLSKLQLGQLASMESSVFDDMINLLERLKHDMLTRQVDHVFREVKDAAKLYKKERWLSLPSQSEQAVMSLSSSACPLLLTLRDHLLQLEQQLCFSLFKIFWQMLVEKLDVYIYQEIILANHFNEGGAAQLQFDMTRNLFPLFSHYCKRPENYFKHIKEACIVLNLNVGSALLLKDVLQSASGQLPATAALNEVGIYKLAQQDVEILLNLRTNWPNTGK
UniProt Q05823: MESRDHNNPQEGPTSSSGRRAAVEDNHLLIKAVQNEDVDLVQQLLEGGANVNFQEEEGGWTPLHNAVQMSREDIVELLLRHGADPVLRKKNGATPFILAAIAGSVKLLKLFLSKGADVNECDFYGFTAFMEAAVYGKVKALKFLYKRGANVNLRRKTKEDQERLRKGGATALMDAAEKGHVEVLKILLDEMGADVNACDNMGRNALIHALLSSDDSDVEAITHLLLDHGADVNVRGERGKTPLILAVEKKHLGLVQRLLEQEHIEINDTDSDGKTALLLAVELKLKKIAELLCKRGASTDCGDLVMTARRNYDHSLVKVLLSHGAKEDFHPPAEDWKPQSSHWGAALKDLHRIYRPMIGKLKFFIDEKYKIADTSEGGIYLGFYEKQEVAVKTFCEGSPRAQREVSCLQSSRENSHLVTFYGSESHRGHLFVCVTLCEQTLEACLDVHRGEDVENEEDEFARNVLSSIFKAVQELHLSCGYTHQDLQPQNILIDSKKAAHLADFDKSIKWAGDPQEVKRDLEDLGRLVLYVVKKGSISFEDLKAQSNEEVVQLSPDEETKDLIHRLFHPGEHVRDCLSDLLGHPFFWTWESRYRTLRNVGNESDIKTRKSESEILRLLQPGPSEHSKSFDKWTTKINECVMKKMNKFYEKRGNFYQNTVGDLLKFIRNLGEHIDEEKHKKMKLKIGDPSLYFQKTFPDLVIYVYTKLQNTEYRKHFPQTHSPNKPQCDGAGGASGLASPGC
UniProt A6NEQ0: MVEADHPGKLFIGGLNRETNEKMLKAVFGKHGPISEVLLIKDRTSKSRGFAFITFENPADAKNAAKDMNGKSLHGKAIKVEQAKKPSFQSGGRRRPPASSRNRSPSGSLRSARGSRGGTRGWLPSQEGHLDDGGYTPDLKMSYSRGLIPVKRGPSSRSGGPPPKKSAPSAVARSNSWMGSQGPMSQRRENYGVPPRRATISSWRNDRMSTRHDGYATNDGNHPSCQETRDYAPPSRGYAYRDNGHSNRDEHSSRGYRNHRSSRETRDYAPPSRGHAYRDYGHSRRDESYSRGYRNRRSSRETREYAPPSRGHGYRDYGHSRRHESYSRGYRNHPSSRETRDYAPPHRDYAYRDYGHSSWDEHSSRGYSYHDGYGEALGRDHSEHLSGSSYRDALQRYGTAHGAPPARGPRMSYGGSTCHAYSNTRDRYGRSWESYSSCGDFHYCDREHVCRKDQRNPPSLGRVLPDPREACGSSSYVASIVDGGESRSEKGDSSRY

Assays:
Assay in all cases: log2 fold change, soluble protein after heating vs DMSO (PISA); higher = thermal stabilisation; K562 cells, 10 uM, 30 min; active = over 0.2 and 3.5 SD of the protein, either way, in both replicates (recomputed)
crizotinib = compound: C[C@@H](Oc1cc(-c2cnn(C3CCNCC3)c2)cnc1N)c1c(Cl)ccc(F)c1Cl [crizotinib]
Procedure, shortened: (§1)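 Quantification of soluble protein used TMTpro 16plex LC-MS/MS, with channel sums equalised. Samples were the supernatant after 21,000xg for 90 min of pooled aliquots from K562 cells (2×10^6 cells/mL) treated with 10 μM compound for 30 min, heated for 3 min over 48°C-58°C, and extracted in PBS with 0.5% NP-40 at 4°C. Values, from duplicates, describe thermal stability against control samples on a log2 fold-change scale.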

[1] = compound: C[C@@H]1COCCN1C2=NC(=NC(=C2)C3(CC3)S(=O)(=O)C)C4=C5C=CNC5=CC=C4
Procedure, shortened: as §1

duvelisib = compound: C[C@H](Nc1ncnc2nc[nH]c12)c1cc2cccc(Cl)c2c(=O)n1-c1ccccc1 [duvelisib]
Procedure, shortened: as §1

gandotinib = compound: Cc1cc(Nc2cc(CN3CCOCC3)c3nc(C)c(Cc4ccc(Cl)cc4F)n3n2)n[nH]1 [gandotinib]
Procedure, shortened: as §1

[2] = compound: Cc1cc(SCc2sc(-c3ccc(C(F)(F)F)cc3)nc2C)ccc1OCC(=O)O
Procedure, shortened: as §1

doramapimod = compound: Cc1ccc(-n2nc(C(C)(C)C)cc2NC(=O)Nc2ccc(OCCN3CCOCC3)c3ccccc23)cc1 [doramapimod]
Procedure, shortened: as §1

ispinesib = compound: Cc1ccc(C(=O)N(CCCN)[C@@H](c2nc3cc(Cl)ccc3c(=O)n2Cc2ccccc2)C(C)C)cc1 [ispinesib]
Procedure, shortened: as §1

[3] = compound: C[C@H](C1=CC=C(C=C1)C(=O)NC2=C3C=CNC3=NC=C2)N
Procedure, shortened: as §1

tozasertib = compound: Cc1cc(Nc2cc(N3CCN(C)CC3)nc(Sc3ccc(NC(=O)C4CC4)cc3)n2)n[nH]1 [tozasertib]
Procedure, shortened: as §1

[4] = compound: CS(=O)(=O)c1ccc(-c2cnc(N)c(C(=O)Nc3ccccc3)n2)cc1
Procedure, shortened: as §1

Measured: log2 fold change

RNF24 isoform 2 (UniProt Q9Y225)
inactive: crizotinib -0.06 | [1] -0.091 | duvelisib 0.016 | gandotinib -0.055 | [2] 0.136 | doramapimod 0.068 | ispinesib 0.145

RNF130 (UniProt Q86XS8)
inactive: crizotinib 0.239 | [3] -0.042 | doramapimod -0.326

RIPOR1 isoform 4 (UniProt Q6ZS17)
inactive: crizotinib -0.046 | [1] 0 | tozasertib -0.005 | doramapimod 0.081 | ispinesib -0.339

RGP1 (UniProt Q92546)
inactive: [4] 0.116 | [1] 0.058 | [3] -0.061 | tozasertib -0.104 | ispinesib 0.134

RFX7 (UniProt Q2KHR2)
inactive: [4] 0.012 | duvelisib 0.017 | [2] -0.072

RHD (UniProt Q02161)
inactive: crizotinib 0.032 | [3] 0.052 | tozasertib 0.012 | doramapimod 0

RGCC (UniProt Q9H4X1)
inactive: gandotinib 0.089

RMI2 (UniProt Q96E14)
inactive: [3] 0.095 | duvelisib 0.081 | tozasertib 0.069 | [2] 0.098 | ispinesib -0.464

RNF169 (UniProt Q8NCN4)
inactive: [3] -0.091 | duvelisib -0.267 | gandotinib -0.196 | tozasertib 0.001 | [2] 0.221

RICTOR isoform 3 (UniProt Q6R327)
inactive: [4] -0.017 | [1] -0.146 | gandotinib -0.015 | [2] -0.072

RIT1 isoform 3 (UniProt Q92963)
inactive: crizotinib 0.078 | [1] -0.138 | gandotinib -0.016 | doramapimod -0.009

RNF11 (UniProt Q9Y3C5)
inactive: crizotinib 0.22 | doramapimod -0.087 | ispinesib -0.076

RNF185 (UniProt Q96GF1)
inactive: [3] -0.036 | gandotinib 0.104 | ispinesib -0.024

RGS14 (UniProt O43566)
inactive: [1] 0.09 | [3] 0.478 | gandotinib 0.023 | tozasertib -0.239 | ispinesib -0.124

RECQL5 (UniProt O94762)
inactive: [3] 0.259 | duvelisib 0.062 | gandotinib -0.007 | [2] -0.045

RMDN2 isoform 2 (UniProt Q96LZ7)
inactive: crizotinib 0 | doramapimod 0.145 | ispinesib -0.112

RNF170 (UniProt Q96K19)
inactive: crizotinib -0.083 | [1] -0.063 | [3] -0.04 | duvelisib 0.165 | gandotinib -0.108 | [2] -0.109 | doramapimod 0.141 | ispinesib -0.175

RILPL2 (UniProt Q969X0)
inactive: [1] 0.065

RC3H2 (UniProt Q9HBD1)
inactive: [1] -0.14 | gandotinib 0.025 | tozasertib 0.021

RLIM (UniProt Q9NVW2)
inactive: [4] -0.058 | [3] -0.147 | duvelisib 0.149 | gandotinib 0.304 | tozasertib -0.233 | [2] -0.085 | ispinesib -0.131

RBP1 isoform 3 (UniProt P09455)
inactive: duvelisib -0.383 | gandotinib 0.61 | [2] -0.293

RNF168 (UniProt Q8IYW5)
inactive: [4] -0.177 | duvelisib -0.343 | tozasertib 0.013 | [2] 0.04 | ispinesib -0.299

RIF1 (UniProt Q5UIP0)
inactive: [4] -0.101 | [1] -0.07 | [3] 0.184 | duvelisib 0.046 | gandotinib -0.053 | tozasertib -0.061 | [2] 0.156 | ispinesib -0.311

RCBTB1 (UniProt Q8NDN9)
inactive: [4] -0.128 | [1] -0.001 | [3] 0.172 | duvelisib -0.238 | [2] 0.175

RNF166 (UniProt Q96A37)
inactive: [4] -0.006 | [3] -0.07 | duvelisib -0.104 | gandotinib -0.029 | tozasertib -0.082 | [2] -0.018 | ispinesib 0.012

RELCH isoform 2 (UniProt Q9P260)
inactive: [4] 0.016 | [1] 0.027 | [3] 0.004 | duvelisib 0.028 | gandotinib -0.036 | tozasertib -0.069 | [2] 0.055 | ispinesib 0.035

RFXANK (UniProt O14593)
inactive: [1] -0.089 | gandotinib -0.018

RIOX1 (UniProt Q9H6W3)
inactive: gandotinib 0.168

RNF111 isoform 3 (UniProt Q6ZNA4)
inactive: crizotinib 0.075 | gandotinib 0.054 | doramapimod -0.065

RBP4 (UniProt P02753)
inactive: crizotinib 0.175 | [3] -0.242 | duvelisib -0.011 | gandotinib -0.29 | tozasertib -0.102 | [2] -0.738 | doramapimod 0.153 | ispinesib -0.027

RINT1 (UniProt Q6NUQ1)
inactive: crizotinib -0.056 | [1] -0.389 | [3] 0.412 | duvelisib 0 | gandotinib -0.061 | tozasertib 0.059 | [2] 0.085 | doramapimod 0.146 | ispinesib -0.051

RGN (UniProt Q15493)
inactive: [4] -0.098 | tozasertib -0.163

RNASEL (UniProt Q05823)
inactive: gandotinib 0.315 | ispinesib -0.072

RHBDD2 isoform 2 (UniProt Q6NTF9)
inactive: crizotinib -0.059 | [1] 0.135 | [3] -0.002 | duvelisib 0.086 | gandotinib 0.334 | [2] -0.083 | doramapimod 0.037

RBMY1E (UniProt A6NEQ0)
inactive: crizotinib -0.122 | [3] -0.12 | gandotinib -0.137 | doramapimod -0.007 | ispinesib -0.148

8 successive records already listed, quoted:
RNF24 isoform 2 (UniProt Q9Y225)
inactive: crizotinib -0.06 | [1] -0.091 | duvelisib 0.016 | gandotinib -0.055 | [2] 0.136 | doramapimod 0.068 | ispinesib 0.145

RNF130 (UniProt Q86XS8)
inactive: crizotinib 0.239 | [3] -0.042 | doramapimod -0.326

RIPOR1 isoform 4 (UniProt Q6ZS17)
inactive: crizotinib -0.046 | [1] 0 | tozasertib -0.005 | doramapimod 0.081 | ispinesib -0.339

RGP1 (UniProt Q92546)
inactive: [4] 0.116 | [1] 0.058 | [3] -0.061 | tozasertib -0.104 | ispinesib 0.134

RFX7 (UniProt Q2KHR2)
inactive: [4] 0.012 | duvelisib 0.017 | [2] -0.072

RHD (UniProt Q02161)
inactive: crizotinib 0.032 | [3] 0.052 | tozasertib 0.012 | doramapimod 0

RGCC (UniProt Q9H4X1)
inactive: gandotinib 0.089

RMI2 (UniProt Q96E14)
inactive: [3] 0.095 | duvelisib 0.081 | tozasertib 0.069 | [2] 0.098 | ispinesib -0.464

(cont.)

RCL1 (UniProt Q5VZU2)
inactive: [1] -0.062 | duvelisib -0.259 | tozasertib 0.085 | [2] 0.044 | ispinesib 0.013
